Experimental data from PubChem BioAssay (EPA / NIEHS).
This list was built around the results that the source calls inconclusive (neither active nor inactive); the mix of calls is not that of the screen. Potencies of inconclusive entries are doubtful fits and often do not repeat. The source made the active and inactive calls. Rule for the calls: active = hit-call score of the fitted dose curve at least 0.9, where 1 is the maximum; inconclusive = response in the unintended direction; inactive = score below 0.9.

By UniProt entry, the sequences of proteins in these tests, tags left out. Where a name states a change or a piece, a line headed by the entry shows the natural chain unless it says otherwise.
UniProt P04406: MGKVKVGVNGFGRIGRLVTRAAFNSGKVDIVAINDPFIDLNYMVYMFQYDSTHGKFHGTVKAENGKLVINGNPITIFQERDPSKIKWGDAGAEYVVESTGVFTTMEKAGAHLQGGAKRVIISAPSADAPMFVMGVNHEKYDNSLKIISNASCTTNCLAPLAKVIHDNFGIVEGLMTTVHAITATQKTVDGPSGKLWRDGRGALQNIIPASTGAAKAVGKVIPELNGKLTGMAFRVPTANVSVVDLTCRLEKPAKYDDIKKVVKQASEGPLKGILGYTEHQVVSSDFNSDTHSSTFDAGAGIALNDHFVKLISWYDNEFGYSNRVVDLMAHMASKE

read-out: Glyceraldehyde-3-phosphate dehydrogenase (Homo sapiens) (UniProt P04406); assay: CLD_GAPDH_48hr: CellzDirect (CLD) Gene Expression Assay for Baseline Control (Glyceraldehyde 3-phosphate dehydrogenase) at 48 hours (AID 2283706);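 for outcome: active means higher GAPDH mRNA than DMSO vehicle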
Method: CLD_48hr is a cell-based, multiplexed-readout assay that uses hepatocyte, a human liver primary cell, with measurements taken at 48 hours after chemical dosing in a 96-well plate.CLD_GAPDH_48hr is one of 16 assay component(s) measured or calculated from the CLD_48hr assay. It is designed to make measurements of mRNA induction, a form of inducible reporter, as detected with chemiluminescence signals by Quantitative Nuclease Protection Assay (qNPA) technology.Data from the assay component CLD_GAPDH_48hr was analyzed at the endpoint, CLD_GAPDH_48hr, in the positive analysis fitting direction relative to DMSO as the negative control and baseline of activity. Using a type of inducible reporter, gain-of-signal activity can be used to understand changes in the reporter gene as they relate to the gene GAPDH. Furthermore, this assay endpoint can be referred to as a secondary readout, because this assay has produced multiple assay endpoints where this one serves a background control function. To generalize the intended target to other relatable targets, this assay endpoint is annotated to the background measurement intended target family, where subfamily is baseline control.
Human hepatocyte cultures were treated daily for two consecutive days with fresh dosing solutions containing appropriate concentrations of the 320 ToxCast chemicals (chemical identities were blinded to CellzDirect and other ToxCast collaborators), vehicle control (0.2% DMSO), and positive control inducers as summarized in Table 1. Due to the large number of treatment groups and chemicals examined, the ToxCast chemicals were divided into two groups (spanning two independent cultures of hepatocytes from separate donor preparations (Hu778: ToxCast plates 1 and 2; Hu776: ToxCast plates 3 and 4). Each preparation of human hepatocyte cultures was treated with respective vehicle control, medium only control, set of six positive controls/reference chemicals for the five hepatic receptor pathways, and a subset of eight of the ToxCast chemicals (indoxacarb, pyrithiobac-sodium, norflurazon, cyhalofop-butyl, methomyl, thiram, acetochlor, and propiconazole). These replicate data, coupled with internal replicates designed within the blinded ToxCast chemical library, provided additional data to evaluate interindividual differences between hepatocyte preparations and their potential impact on chemical profiles.Cell morphology and integrity were evaluated using phase-contrast microscopy as an indicator of hepatocyte cell health (Tyson & Green, 1987). Cultures for each treatment group (i.e., media, vehicle [0.2% DMSO], positive control inducers [multiple concentrations], and the ToxCast chemicals [multiple concentrations]) were observed and cell morphology was assessed relative to vehicle control cultures at each harvest time point (0, 6, 24, or 48 h). […] Images were evaluated at the conclusion of the study to assess changes in cell integrity and account for the effects of chemical exposure on uncharacteristic changes in concentration-dependent gene expression profiles. The results from these determinations of apparent cytotoxicity were annotated (yes/no) alongside the corresponding qNPA data for reference.At the conclusion of each treatment period, hepatocyte cultures (96-well) were washed with 1 volume of HBSS, lysed by addition of 25 ul ArrayPlate lysis buffer (HTG, Tucson, AZ), and 70 ul/well of Denaturation Oil, denatured by incubation at 95C for 10 min, and frozen at approximately -70C until analysis by nuclease protection assay (qNPA) (Roberts et al., 2007). For qNPA analysis, cell lysates were thawed at 50C for approximately 30 min, qNPA probes were added, and samples were incubated at 95C for 10 min to begin the detection process by denaturing the target RNA, dissociating the duplexes and secondary structure hybridization. At the conclusion of the hybridization period, S1 nuclease reagent was added to each sample to digest all nonprotected nucleotides at 50C for 60-90 min. […]

| Structure (SMILES) | outcome | AC50 |
| --- | --- | --- |
| CCCOC(=O)c1ccc(C(=O)OCCC)nc1 | inactive |  |
| N#CSCSc1nc2ccccc2s1 | inactive |  |
| CCCCCOC(=O)COc1cc(N2C(=O)C3=C(CCCC3)C2=O)c(F)cc1Cl | inactive |  |
| CCOC(=O)COc1cc(-n2ncc(C(F)(F)F)c(C)c2=O)c(F)cc1Cl | inactive |  |
| CCCCOC(=O)C(C)Oc1ccc(Oc2ccc(C(F)(F)F)cn2)cc1 (stereo not given) | inactive |  |
| CSC(=O)c1cccc2nnsc12 |  | inconclusive: 20 µM |
| CN(C)C(=O)Nc1ccc(Cl)c(Cl)c1 |  | inconclusive: 20 µM |
| CCOC(=O)C(C)Oc1ccc(Oc2cnc3cc(Cl)ccc3n2)cc1 (stereo not given) |  | inconclusive: 20 µM |
| c1ccc2[nH]c(-c3cscn3)nc2c1 |  | inconclusive: 4.39 µM |
| CCCCOC(=O)[C@@H](C)Oc1ccc(Oc2ccc(C(F)(F)F)cn2)cc1 |  | inconclusive: 1.15 µM |

2 records picked at random from those above:

| Structure (SMILES) | outcome | AC50 |
| --- | --- | --- |
| CN(C)C(=O)Nc1ccc(Cl)c(Cl)c1 |  | inconclusive: 20 µM |
| CSC(=O)c1cccc2nnsc12 |  | inconclusive: 20 µM |
